These are yes or no findings as the source states them, for the method shown. In cells and extracts the contact can be indirect. A yes stands for co-enrichment or nearness to the bait. Other partners may have been found. Tags and fused reporters may be left off the sequences shown.
T1: DLG-1::GTA (DLG-1::GFP-2xTEV-Avi) (C. elegans) (UniProt G5ECY0)
T1 sequence (chain, biotin on the Avi tag (in vivo, by BirA)): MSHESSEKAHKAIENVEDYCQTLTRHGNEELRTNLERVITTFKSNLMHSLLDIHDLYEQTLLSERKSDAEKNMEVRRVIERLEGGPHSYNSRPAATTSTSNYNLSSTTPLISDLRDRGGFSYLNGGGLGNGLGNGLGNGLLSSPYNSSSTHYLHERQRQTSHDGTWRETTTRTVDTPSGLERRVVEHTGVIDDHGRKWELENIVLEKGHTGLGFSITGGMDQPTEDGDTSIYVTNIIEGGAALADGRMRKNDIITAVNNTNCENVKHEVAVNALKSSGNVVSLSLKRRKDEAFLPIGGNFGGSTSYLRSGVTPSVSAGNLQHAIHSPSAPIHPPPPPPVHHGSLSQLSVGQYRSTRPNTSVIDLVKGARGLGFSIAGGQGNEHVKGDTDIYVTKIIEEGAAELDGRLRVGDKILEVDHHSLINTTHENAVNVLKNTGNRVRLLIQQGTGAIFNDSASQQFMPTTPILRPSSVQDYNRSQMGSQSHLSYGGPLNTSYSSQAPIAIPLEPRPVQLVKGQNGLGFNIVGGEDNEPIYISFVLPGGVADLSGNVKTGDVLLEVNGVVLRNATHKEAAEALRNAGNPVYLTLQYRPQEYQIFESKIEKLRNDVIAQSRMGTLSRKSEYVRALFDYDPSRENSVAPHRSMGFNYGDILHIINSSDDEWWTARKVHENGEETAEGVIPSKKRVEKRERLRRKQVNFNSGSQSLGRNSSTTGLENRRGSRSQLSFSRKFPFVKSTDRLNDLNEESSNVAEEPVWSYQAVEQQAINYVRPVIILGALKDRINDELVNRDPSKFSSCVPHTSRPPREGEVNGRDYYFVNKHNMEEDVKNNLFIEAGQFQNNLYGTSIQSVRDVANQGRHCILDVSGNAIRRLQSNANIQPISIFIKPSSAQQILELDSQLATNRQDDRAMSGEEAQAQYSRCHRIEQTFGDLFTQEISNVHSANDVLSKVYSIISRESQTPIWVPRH

Amino acid sequences for entries named in this document (tags omitted). A change or cut given only in a name is not applied to a line headed by its entry. Residues count along the entry.
UniProt P17329: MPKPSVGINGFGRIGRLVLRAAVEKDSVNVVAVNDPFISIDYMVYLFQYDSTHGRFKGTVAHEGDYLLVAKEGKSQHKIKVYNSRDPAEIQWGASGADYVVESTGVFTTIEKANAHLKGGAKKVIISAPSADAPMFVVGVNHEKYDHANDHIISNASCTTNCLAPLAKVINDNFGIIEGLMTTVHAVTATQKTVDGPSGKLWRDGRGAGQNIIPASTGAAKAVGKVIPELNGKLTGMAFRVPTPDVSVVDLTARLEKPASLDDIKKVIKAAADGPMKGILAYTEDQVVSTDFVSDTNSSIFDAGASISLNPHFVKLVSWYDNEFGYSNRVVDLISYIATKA
UniProt D5MCN2: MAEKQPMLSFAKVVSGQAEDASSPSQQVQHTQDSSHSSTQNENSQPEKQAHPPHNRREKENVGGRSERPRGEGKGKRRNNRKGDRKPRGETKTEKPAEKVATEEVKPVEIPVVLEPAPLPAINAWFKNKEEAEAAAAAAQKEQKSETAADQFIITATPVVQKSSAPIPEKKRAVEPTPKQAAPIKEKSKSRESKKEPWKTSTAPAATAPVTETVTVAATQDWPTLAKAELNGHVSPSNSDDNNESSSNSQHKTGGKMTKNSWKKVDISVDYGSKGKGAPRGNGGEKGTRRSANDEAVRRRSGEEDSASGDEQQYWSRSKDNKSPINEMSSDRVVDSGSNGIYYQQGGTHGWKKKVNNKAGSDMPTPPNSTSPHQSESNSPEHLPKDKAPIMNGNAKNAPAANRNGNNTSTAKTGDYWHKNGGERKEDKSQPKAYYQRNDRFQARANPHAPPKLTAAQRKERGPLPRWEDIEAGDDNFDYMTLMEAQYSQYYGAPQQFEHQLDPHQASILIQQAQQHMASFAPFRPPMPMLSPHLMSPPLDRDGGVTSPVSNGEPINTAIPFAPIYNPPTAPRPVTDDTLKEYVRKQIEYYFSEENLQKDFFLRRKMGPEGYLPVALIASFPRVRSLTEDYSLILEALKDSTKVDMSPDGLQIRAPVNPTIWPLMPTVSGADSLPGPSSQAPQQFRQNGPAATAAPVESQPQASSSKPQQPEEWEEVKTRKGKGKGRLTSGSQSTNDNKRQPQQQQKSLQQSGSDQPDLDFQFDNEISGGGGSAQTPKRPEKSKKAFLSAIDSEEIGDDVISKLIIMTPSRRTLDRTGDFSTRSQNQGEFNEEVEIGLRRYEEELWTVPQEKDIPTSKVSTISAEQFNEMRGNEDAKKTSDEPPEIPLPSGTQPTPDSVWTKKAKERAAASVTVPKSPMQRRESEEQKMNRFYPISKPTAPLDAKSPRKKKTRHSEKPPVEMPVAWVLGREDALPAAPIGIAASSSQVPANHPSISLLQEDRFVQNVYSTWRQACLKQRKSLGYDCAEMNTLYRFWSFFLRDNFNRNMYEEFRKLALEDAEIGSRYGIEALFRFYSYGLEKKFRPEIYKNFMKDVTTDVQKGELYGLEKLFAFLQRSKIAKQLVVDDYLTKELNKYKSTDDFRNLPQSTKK
UniProt Q18494: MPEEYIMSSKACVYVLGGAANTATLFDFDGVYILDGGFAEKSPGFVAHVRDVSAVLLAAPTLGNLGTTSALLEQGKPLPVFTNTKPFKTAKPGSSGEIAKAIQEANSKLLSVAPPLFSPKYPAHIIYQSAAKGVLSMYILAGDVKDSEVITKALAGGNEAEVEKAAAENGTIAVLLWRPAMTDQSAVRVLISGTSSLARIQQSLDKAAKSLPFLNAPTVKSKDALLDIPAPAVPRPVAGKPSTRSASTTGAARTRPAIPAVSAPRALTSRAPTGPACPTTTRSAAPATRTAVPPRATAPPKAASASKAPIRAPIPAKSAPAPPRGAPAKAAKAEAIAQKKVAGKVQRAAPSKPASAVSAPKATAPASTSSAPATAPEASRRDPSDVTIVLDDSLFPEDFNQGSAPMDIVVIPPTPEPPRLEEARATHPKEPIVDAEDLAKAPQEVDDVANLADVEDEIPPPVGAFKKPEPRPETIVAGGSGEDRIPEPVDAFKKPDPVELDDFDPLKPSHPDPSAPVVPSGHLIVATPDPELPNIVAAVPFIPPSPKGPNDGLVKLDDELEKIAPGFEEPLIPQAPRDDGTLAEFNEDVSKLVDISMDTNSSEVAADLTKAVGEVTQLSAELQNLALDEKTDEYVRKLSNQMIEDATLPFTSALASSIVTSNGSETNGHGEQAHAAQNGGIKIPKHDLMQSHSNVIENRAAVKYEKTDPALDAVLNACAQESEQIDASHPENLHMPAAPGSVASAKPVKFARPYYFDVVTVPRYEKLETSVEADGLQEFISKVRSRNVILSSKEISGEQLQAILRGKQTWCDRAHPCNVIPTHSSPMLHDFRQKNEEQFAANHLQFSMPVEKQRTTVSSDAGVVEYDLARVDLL
UniProt Q27371: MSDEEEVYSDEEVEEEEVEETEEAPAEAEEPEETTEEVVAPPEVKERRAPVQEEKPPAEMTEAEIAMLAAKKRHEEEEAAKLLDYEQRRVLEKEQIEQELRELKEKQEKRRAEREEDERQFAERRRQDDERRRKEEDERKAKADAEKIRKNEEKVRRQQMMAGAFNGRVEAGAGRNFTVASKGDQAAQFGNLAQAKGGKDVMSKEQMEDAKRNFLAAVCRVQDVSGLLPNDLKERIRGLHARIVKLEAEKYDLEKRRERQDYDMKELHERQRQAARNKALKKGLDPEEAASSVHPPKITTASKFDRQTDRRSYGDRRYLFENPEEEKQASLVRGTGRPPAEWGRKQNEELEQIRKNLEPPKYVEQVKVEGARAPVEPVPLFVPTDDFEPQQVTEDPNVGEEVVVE
UniProt P18948, residues 16-1651: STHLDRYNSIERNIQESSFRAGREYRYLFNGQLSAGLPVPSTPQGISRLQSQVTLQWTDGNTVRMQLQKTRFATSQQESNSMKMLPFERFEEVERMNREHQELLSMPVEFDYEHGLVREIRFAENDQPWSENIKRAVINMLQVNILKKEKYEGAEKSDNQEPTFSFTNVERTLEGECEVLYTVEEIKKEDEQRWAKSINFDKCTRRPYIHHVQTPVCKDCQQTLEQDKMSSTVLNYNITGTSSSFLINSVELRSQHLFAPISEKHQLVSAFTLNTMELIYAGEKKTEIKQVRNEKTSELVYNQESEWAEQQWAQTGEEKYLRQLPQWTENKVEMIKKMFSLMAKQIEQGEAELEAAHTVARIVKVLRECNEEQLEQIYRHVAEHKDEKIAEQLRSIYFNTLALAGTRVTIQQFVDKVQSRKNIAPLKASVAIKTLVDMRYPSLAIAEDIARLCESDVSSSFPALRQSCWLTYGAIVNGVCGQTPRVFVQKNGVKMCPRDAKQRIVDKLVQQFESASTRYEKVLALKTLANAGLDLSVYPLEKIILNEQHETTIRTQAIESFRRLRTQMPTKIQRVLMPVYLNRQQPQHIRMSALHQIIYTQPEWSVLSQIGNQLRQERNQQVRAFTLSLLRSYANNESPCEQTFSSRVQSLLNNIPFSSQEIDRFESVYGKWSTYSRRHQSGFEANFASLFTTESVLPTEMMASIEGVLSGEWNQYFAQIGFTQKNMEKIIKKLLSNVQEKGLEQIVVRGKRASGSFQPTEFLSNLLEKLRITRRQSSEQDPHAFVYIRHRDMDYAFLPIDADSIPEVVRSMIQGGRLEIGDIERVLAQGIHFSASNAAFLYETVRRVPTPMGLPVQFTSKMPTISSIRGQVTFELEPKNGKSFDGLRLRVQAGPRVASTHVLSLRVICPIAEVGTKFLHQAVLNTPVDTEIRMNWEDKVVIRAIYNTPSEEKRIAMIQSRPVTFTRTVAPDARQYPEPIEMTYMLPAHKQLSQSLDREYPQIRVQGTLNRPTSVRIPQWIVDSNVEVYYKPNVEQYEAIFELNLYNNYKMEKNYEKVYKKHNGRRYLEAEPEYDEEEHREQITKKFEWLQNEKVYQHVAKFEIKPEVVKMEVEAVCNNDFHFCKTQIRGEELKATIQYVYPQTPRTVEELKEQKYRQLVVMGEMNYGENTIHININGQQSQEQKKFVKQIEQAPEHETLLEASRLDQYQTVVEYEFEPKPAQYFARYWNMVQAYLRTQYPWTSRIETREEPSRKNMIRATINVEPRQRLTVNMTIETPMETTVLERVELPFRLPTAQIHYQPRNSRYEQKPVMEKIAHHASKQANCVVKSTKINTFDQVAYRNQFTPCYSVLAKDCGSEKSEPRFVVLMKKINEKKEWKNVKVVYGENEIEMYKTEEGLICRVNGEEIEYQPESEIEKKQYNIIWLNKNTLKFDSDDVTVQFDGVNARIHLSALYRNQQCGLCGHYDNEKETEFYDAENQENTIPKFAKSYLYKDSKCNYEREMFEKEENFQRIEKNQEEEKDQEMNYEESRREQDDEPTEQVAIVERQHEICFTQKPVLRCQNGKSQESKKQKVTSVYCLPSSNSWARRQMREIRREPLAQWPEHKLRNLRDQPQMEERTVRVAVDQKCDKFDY

B1: VARS-2 (protein, UniProt Q9U1Q4 1-1050)
chain: MSDPAGNRPKTEKELKKEAEKAAKLAKFEEKQKKLAEKKAAASDKPVKEAKAKKEQTVEAAEPVDQTPTGQRKKIDGEIPAAYFPGYVESGWYSWWEKEGFFKPEYIDKLNPGSNPADSFTVCIPPPNVTGNLHVGHALATTVEDTITRFNRMHGKRTLFNPGCDHAGIATQVVVEKRLKRERGLTRHDLGRDRFNQEVWHWKNEKGDVIYDQFRKLGASVDWDRAVFTMDPKMCRAVTEAFIRMHESGTIYRSNRLVNWSCALRSAISDIEVDKKELTGSTLIAVPGYDKKIEFGVLNSFAYKIQGSDEEIVVSTTRIETMLGDSGVAVHPDDQRYKHLVGKQCIHPFIPTRNLPIFADSFVEMEFGTGAVKITPAHDHNDYEVGIRQNLPFHNCITDDGLISQGCGEFSGMKRFDARTAVIEALKEKGLYRGKEDNPMVVPTCSRSKDVIEPILKPQWYVKCAHMAEKAVAAVANGDLQIIPEFHKATWNRWLESSRDWCISRQLWWGHRIPAYYISFADGREQPLPEENYWVSARTEQEALAKAAQKFQVPEAEILLKWDEDVLDTWFSSGMWPFAVFGWPDATKDMDLFFPGAVLETGHDILFFWVARMVFMAQELTGKLPFKEILLHAMIRDAHGRKMSKSLGNVIDPLDVIRGISLNDLQAQLLGGNLDEKEIAVAKEGQARDYPDGIPECGVDALRFALLSYTSQGRDINLDVLRVHGYRKFCNKLWQVVRFALARISDKPEQKPTFEINLKSATPTDLWILSRLAKAVKETNEALKAYNFTQATTVTYNFWLYDFCDVYVETIKPVLYGDNTTLRQVAISVLHKCIDTGLRLISPLMPFISEELWQRMPRLDDSDYTSPSIIVAQYPLTQKYEKYQNEKLEAAFEFAQELIGKVRSLRADYDLKKTKITMQILSETPEDESMLNDISAVITTLTFSEKVSILNKCESDKIEKGSAHIACGGRCQVYINLTGIIDVPKEIEKLGAKLQKNQISVKKIGDIQSSADYEQKVPVDIRALDQEKKATLEKEIENITAAIAQLKALN
B2: MRG-1 (protein, UniProt A7DTF0 1-337)
chain: MSSKKNFEVGENVACIYKGKPYDAKITDIKTNSDGKELYCVHFKGWNNRYDEKIPVGEEKDRIFKGTASEYAEKHNAELPTTALKPKKKSLAAEAPRDDRDDTPGTSKGKKAKSVTIAPVMTADDMKVELPKPLRKILIDDYDLVCRYFINIVPHEYSVDQIIEDYIKTIPVSNEQMRTVDDLLIEYEEADIKITNLALICTARGLVDYFNVTLGSSYQLLYKFERPQYNDLVKKRAMEKGIDITNPTALQDSGFRPSQEYGIVHFLRMLAKLPDYLKLTQWNDHVINRIMIGVHDLIVFLNKNHGKYYRGSSDYQGASNDYYRRSLAADDGVGANQ
B3: NMT-1 (protein, UniProt P46548 1-450)
chain: MSHGHSHDGAPCGGHHGDDGAGGSRPSVNDVQALVDQLRLAGVDVSNMPNIPTAPRDMDEARSKSFQFWSTQPVPQMDETVPADVNCAIEENIALDKVRAEPFSLPAGFRWSNVDLSDEEQLNELYNLLTRNYVEDDDSMFRFDYSADFLKWALQVPGFRPEWHCGVRADSNNRLLAFIGAVPQTVRVYDKTVNMVEINFLCVHKNLRSRRVAPVLIREITRRVNVTGIFQAAFTAGIVIPKPVSVCRYYHRSLNPRKLIDVRFSHLSAKMTMARTIKLYKLPEETATRNLREMKSTDVPQVFKLLTTSLKQYSLAPVYNSEEELAHALVPKKGVVYSYVAENQNGKITDFVSFYSLPSTVMGHTTHKTIYAAYLYYYVAGSVTPKQLINDSLILANREKFDVFNALDLMHNEKIFSDLKFGKGDGNLQYYLYNWKCADMKPSQIGLVLQ
B4: IFB-2 (protein, UniProt Q19286 1-543)
chain: MSAVSYSMHRTTTTTSSSSHGGVSAGHAAEEFVASAEREKQEMQQLNSRLEVYISRVRQLEDRNKELVIELDTLRGSLGNDIGQIKFKFNDSLVKVRREISEAHSGTIGVEVKVDRLRDDLNDYRHRYEEARREVEREKTTWGGAISQAQAELDTNKSRYAAILDEEKRLYAEQDQLYLQLAAAKDELDAAIVDRRRLQAEEDDLKIELEFLGRIHSQEITELRTLLAQAPADTREFFKNELALAIREIKAEYDKIIQTTRVDLETIFQSKISAVESSIVSKNEAAVFRQEEIRKMNESITTLRAKLSELEARNSALEREANTLQIQLGEDQRAYESELHKRDNALRFMREDCQTLIAELQALLNTKQTLDTEIAIYRKLVESEEGRFTHVGQGVVVAQQETTRLVPVEQDHWDSGEVQTRSSFKRHAKGNVSIVECDPQGKYIILENTSGSVAEDVSNFEIRRVIDGVQAFVFRLPSHLVIQQHGHLKIYGRNSGGINSPPDSIVMESHPSWGQGGQVETFLYNSHGIEKASHIQTTVASSR
B5: IFC-2 (protein, UniProt Q21067 1-622)
chain: MSTYAAYTTSTYQGRGLASGTYASGFGQLVSGMSSAGAICTTQIRDAREREKREIGLLNDRLADYIEKVRFLEAQNRCLSHDIDILRNGFSGGGHVSGLFDAEINQAKHILEQTTAHRSTFERDITGLSAEIEVFRKKWLDAVNAVKAHREDHDVDLDRLAKIEAEISLFKRKIRIVEEDVIRIRRENDGIYNEIARIKQLTHNEIALKNERSLNVSDLLQRINLLQTENNVRIEQELVFIRRDTTADNRDYFRHELQAAIRDIRADYEAISIRNRQDIEVWYREQIRKIQDESVRVNPDLYKEELISIRTTVTNVRSRLAEVEGRNFFLERLIDDLKNNEEAKFFEISLAERDAQIATLRDQCTELSIQMEKLCDNEISLRAEIERYRILLNGANVTTYTSNTHGSGSGIAVGGVVGGSTRVISQTTRTHSSSNTSYSNVPASRGGYSISGNVGGISVGGTIGSHGASAHATGGIIGSGVQAHRGSVSSLITDKPRDRVHDEKGVDQSGRHFHSWYLGTISINQVTPSYIELKNICKIRRVDVGGFRIEQSVNGQVLGSAQINVPLILDPQEVVRFNHRHGKYLGQFFMDVDAFDNSTVARTSMYNYTEPHEERAWFVYLD
B6: UNC-87 (protein, UniProt P37806 1-565)
chain: MLSFNNTTSASSFQSASSRYLMSSSSSIGPPQQQSAKLFPEHFYPSGLSPRQSEALERLRPNTASRERNIPIQFTGKNPTTNSALEEYKPVPHVQVTSPKSSIVPNFVSEQRGLQPQPTSQAPTNYRQFVAAPRSPRGYGDYPEMTGKASAAGDSEPVQIPIKTQTPITQARAQETKIPTIVSPHPVYYYDNQEQPIQQIREEQPNATMETKVTGQGQPKRVGRWTLAQLRQTDGIIPSQAGWNKGDSQKLMTNFGTPRNTNTRVKSENLQEIPEDIANRTHGEVRLQSGTNKYCSQRGMTGFGSGRDVCREGVRVAQNPADLAELPEEKIRMSEGIVRLQAGTNKYDSQKGMTGFGTGRRETTKMVDSKHPEYDHEKPDQSEIPLQSGTNKFASQKGMTGFGTARRETTKMVDSNHPDYSHECSIDQTTIPSQMGSNQYASQKGMTGFGQPRWEVLDPSISWQNRKSQGMVRLQSGTNRFASQAGMIGFGTCRNTTFEAEGGELPYEAMKVSETIIPSQAGWNKGDSQKKMTSFGAPRDVKGKHLKRIWELEYPEEAEISLDRL

What follows are molecules tested against T1, DLG-1::GTA (DLG-1::GFP-2xTEV-Avi) (C. elegans) (assay: affinity purification with mass spectrometry; GTA-tagged bait biotinylated in vivo (BirA ubiquitous, intestine, seam/hyp7 or neurons) captured on streptavidin-coated beads from whole-animal lysate (L3/L4; 150 mM NaCl, 20 mM Tris pH 7.8, 5 mM EDTA, 1 % Triton X-100), 1.5 h at 4 °C, released by TEV protease, LC-MS/MS, SAINT scoring against GFP::TEV::Avi controls, triplicates).

binding, binds:
ATN-1 (C. elegans (endogenous in whole animals))
EPS-8 (C. elegans (endogenous in whole animals))
GPD-2 (from UniProt P17329 1-341)
LARP-1 (from UniProt D5MCN2 1-1150)
LEC-2 (C. elegans (endogenous in whole animals))
LEC-4 (C. elegans (endogenous in whole animals))
MAPH-1.3 (from UniProt Q18494)
MUP-2 (from UniProt Q27371 1-405)
VIT-6 (from UniProt P18948 16-1651)
B1
B2
B3
B4
B5
B6
